Results are given in words; binding and its absence hold for the method and conditions named. In cells and extracts the contact can be indirect. Some binding calls cover weakened binding; strength is not graded here.
Key:
[1] = molecular target: GFP-SMARCB1 (human) (UniProt Q12824); test: co-IP; GFP-SMARCB1 (wild type or mutant) with one Myc-tagged partner, no other subunit added
[2] = molecular target: GFP-SMARCB1 (human) (UniProt Q12824); test: co-IP; GFP-SMARCB1 (wild type or mutant) with Myc-SMARCA4 and added SMARCC2 and/or SMARCC1 (Fig. 1e, Supplementary Fig. S8a-b); 3% of the Myc fusion proteins shown as input; also with SMARCC2(R487C) and/or SMARCC1(R512Q) in place of the wild types
[3] = molecular target: GFP-SMARCB1(D202A, E210A) (human) (UniProt Q12824); test: as above
[4] = molecular target: GFP-SMARCB1(D202A, E210A, R341L) (human) (UniProt Q12824); test: as above
[5] = molecular target: GFP-SMARCB1(R341L) (human) (UniProt Q12824); test: as above
[6] = molecular target: SMARCB1 with the in-frame deletion 185-193Δ (human) (UniProt Q12824); test: as above

The chains behind the UniProt entries cited, without tags or fusion partners. Where a name states a change or a piece, a line headed by the entry shows the natural chain unless it says otherwise. A line that says so, or that is headed by a name, gives the form on record, which may keep a tag or linker.
UniProt Q12824: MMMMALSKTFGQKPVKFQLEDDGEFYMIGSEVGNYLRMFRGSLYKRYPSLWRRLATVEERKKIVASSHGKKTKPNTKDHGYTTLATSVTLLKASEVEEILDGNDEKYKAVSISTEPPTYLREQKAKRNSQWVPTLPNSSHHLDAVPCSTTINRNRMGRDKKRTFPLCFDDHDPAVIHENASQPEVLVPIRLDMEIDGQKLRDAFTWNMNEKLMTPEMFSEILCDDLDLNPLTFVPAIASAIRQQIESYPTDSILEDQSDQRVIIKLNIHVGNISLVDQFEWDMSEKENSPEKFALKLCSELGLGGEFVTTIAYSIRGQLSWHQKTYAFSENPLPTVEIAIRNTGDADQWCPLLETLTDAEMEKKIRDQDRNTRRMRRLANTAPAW
SMARCB1 with the in-frame deletion 185-193Δ (Q12824, form named): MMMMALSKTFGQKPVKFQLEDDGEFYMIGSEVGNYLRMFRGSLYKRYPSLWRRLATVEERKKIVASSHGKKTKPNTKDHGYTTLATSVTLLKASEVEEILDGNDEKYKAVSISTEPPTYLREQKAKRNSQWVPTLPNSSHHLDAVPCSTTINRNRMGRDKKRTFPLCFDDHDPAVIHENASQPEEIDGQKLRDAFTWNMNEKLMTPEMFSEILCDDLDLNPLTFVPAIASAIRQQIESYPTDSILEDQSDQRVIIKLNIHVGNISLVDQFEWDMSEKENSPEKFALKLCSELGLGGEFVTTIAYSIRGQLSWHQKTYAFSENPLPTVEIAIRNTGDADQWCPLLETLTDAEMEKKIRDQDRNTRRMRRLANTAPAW
UniProt P51532: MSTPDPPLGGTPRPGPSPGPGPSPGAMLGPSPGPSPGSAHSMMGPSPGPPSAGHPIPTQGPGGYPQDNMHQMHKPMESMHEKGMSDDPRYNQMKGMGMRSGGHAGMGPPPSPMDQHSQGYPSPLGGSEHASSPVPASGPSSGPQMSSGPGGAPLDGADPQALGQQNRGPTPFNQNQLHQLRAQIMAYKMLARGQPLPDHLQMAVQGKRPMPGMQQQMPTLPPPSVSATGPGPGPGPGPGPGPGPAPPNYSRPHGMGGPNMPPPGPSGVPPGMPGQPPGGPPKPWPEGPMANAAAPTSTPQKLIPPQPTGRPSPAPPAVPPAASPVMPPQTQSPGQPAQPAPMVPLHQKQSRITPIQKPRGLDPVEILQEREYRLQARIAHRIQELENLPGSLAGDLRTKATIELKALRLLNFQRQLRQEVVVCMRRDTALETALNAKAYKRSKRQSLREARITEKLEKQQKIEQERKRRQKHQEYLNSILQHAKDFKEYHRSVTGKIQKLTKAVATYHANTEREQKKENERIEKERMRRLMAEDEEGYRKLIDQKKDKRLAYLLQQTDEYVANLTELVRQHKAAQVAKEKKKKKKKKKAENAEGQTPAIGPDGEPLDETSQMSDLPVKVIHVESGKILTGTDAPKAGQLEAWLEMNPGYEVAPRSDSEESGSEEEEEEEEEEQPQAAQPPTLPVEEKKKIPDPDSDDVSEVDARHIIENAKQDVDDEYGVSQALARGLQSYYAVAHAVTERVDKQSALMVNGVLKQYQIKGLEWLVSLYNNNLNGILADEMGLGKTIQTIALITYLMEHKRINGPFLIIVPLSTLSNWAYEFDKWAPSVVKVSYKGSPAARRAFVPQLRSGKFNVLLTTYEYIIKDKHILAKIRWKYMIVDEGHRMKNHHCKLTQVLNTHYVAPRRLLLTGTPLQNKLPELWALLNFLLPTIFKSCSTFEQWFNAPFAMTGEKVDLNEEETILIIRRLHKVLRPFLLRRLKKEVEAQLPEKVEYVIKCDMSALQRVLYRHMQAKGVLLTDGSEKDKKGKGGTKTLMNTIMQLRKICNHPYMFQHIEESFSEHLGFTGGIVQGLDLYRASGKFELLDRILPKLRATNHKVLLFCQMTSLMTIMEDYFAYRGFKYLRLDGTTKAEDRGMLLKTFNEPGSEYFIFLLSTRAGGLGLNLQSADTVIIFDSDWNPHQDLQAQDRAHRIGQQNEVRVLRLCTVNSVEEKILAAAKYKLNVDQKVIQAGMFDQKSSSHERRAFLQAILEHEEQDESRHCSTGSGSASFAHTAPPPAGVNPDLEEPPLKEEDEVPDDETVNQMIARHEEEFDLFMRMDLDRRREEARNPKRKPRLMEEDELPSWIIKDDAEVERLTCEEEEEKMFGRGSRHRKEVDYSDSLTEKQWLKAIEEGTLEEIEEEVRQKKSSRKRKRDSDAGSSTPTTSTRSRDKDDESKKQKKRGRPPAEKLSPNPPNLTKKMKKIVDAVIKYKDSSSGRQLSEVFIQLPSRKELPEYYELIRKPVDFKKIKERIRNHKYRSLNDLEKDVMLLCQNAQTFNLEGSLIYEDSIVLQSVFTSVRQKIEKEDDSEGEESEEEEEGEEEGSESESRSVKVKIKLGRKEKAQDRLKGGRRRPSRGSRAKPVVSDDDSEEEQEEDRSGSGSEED
UniProt Q92922: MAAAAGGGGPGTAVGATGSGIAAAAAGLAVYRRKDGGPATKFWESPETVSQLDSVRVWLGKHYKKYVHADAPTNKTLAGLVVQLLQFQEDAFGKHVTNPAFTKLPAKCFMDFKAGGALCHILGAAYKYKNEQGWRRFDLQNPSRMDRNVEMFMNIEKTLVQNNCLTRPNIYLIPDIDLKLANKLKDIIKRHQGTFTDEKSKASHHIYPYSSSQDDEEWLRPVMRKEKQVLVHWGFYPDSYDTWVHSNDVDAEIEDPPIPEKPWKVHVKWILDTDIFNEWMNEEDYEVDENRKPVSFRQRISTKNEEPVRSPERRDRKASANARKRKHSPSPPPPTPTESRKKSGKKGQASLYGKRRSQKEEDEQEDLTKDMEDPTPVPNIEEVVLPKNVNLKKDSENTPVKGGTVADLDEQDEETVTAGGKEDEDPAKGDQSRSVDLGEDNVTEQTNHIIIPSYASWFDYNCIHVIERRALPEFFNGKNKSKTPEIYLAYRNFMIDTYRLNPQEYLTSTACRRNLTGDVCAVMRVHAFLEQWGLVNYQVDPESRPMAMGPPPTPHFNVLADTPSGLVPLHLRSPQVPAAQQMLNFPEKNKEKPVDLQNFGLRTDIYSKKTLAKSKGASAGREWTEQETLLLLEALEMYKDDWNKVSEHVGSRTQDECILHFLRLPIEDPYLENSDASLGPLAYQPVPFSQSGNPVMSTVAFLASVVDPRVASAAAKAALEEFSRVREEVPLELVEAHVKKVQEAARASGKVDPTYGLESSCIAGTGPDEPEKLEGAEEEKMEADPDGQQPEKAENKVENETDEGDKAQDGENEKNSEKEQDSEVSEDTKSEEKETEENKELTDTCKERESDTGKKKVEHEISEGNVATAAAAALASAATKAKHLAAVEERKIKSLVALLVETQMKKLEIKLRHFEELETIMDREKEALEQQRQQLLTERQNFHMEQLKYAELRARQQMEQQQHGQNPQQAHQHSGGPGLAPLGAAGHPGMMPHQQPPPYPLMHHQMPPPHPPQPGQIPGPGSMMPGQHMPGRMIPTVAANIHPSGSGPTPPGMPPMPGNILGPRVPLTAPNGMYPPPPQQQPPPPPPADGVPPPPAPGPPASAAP

Row | binding [1] | binding [2] | binding [3] | binding [4] | binding [5] | binding [6] | Substance
1 | binds weakly | binds | binds | binds | binds | binds | Myc-SMARCA4 (from UniProt P51532 1-1647)
2 |  | binds | binds | binds | binds | binds | Myc-SMARCC1 (from UniProt Q92922 1-1105)
3 | binds |  |  |  |  |  | SMARCC1 R499C (from UniProt Q92922 1-1105)
4 | binds |  |  |  |  |  | SMARCC1 R499H (from UniProt Q92922 1-1105)

Source: publication PMC7506551
